Measured values from patent EP2711366A1, “Cationic triphenylamine derivatives activable by visible and Infra Red light for inducing and imaging apoptosis in cancer cells” (Institut Curie, priority 2012, dated 2014).

Experiments:
Assay type in all cases: cell-based
living MCF-7 cells [1] = test: One-photon confocal fluorescence microscopy, photo-induced nuclear translocation and membrane blebbing
Description: One-photon epifluorescence and confocal images were obtained using a SP2 confocal microscope (Leica MicroSystem) equipped with an incubation chamber (37°C, CO2 5%). Excitation and emission filters for epifluorescence were 450-490 nm and 515-700 nm, respectively. A continuous laser line (458 nm) was used for excitation in the confocal mode.
The photo-induced nuclear translocation and membrane blebbing were next assessed using confocal fluorescence microscopy [λexc = 458 nm; emission slit settings: 560-720nm and 530-690nm for TP2Py and TP3Bzim, respectively] under experimental conditions similar to those described in experiment 1 for epifluorescence experiments. The corresponding transmission images illustrating the concomitant membrane blebbing are shown below the confocal fluorescence images. Living MCF7 cells were incubated with 2µM TP3Bzim or TP2Py for 2 hours before observation. As shown in Fig. 5A (TP2Py) and in Fig. 5B (TP3BZim), the results obtained with confocal imaging were similar to those obtained with epifluorescence imaging (experiment 1), with however, some discrepancies in the time courses of event appearance, most likely due to the power of the excitation source which is different between epifluorescence and confocal experiments (see below). […] Based on both criteria (re-localization of the fluorescence signal and the formation of blebs), the deduced fluences were 22 and 40 J/cm^2 for TP2Py and TP3Bzim, respectively. […]
The TP2Py compound at a concentration of 2 µM was first incubated with living MCF-7 cells for 2 hours and then observed with confocal microscope with varying illumination power of the laser source [λ=458 nm; emission slit setting: 560-720 nm]. […] For each condition, the fluorescence intensity in ROIs corresponding to the nucleus was plotted as a function of time (the initial time value, t = 0, represents the first observation) (FIG.7C). Using integration time based on tmax values, light dose values, determined from experiments performed at irradiance of 5.6 or 30 mW/cm^2, were consistent (27.6 and 27 J/cm^2 respectively). These values are in accordance with the above-mentioned value for TP2Py (fluence, 22 J/cm^2 in Fig. 5).
Living MCF-7 cells were treated with varying concentrations of TP2Py for two hours (2µM; 0.2µM and 0.02µM) and observed with a confocal microscope [λexc = 458nm; irradiance 30mW/cm^2, emission slit setting: 560-720nm.] (FIG 8A: 2µM; FIG 8B: 0.2µM; FIGBC: 0.02µM).

living MCF-7 cells [2] = test: Epifluorescence microscopy of living cells, photo-induced cytoplasm to nucleus re-localization; settings: 2 µM pre-incubated with living MCF-7 cells for 2 h
living HeLa cells = test: Epifluorescence imaging of living cells under continuous illumination (re-localization, membrane blebbing); settings: for subcellular localization at early time of observation: 2 µM, 2 hours incubation, excitation filter 450-490 nm, irradiance 1.8 W/cm^2
HeLa cells = test: Epifluorescence and confocal imaging of fixed cells treated with TPA (cellular localization); settings: 2 µM for 2 hours, HeLa cells fixed using formaldehyde
[3] = tested on: PARP (poly-ADP ribose polymerase) cleavage in HeLa cells; test: PARP cleavage by Western blot and cell morphology after illumination; settings: 2 µM
Description: HeLa cells were plated in 6-well plates (4.10^5 cells/well) and incubated with 2 µM TP2Py for 2h at 37°C. After varying illumination times (up to 90min) at 17 mW.cm^-2 (Mercury lamp (130W; 380-600nm) + excitation filter centered at 452 nm (± 45 nm)), cells were collected by scraping, washed once in ice-cold PBS, treated with lysis buffer (1% Nonidet P-40, 20 mM Tris pH 8.0, 137 mM NaCl, 10% glycerol (v/v)) supplemented with 1 mM phenyl-methylsulfonyl fluoride, 1 mM sodium orthovanadate and anti-protease cocktail (Complete, Boehringer Mannheim, Germany) for 20 min on ice and further centrifuged at 10000g for 10 min. Protein concentrations were determined using the bicinchoninic acid method (micro BCA, Pierce, USA). 40µg of detergent soluble proteins were separated by SDS-PAGE under reducing conditions followed by Western blotting. Membranes were first incubated overnight at 4°C with the rabbit primary polyclonal antibody anti-PARP (Cell Signaling Technology). Membranes were then probed with horseradish peroxidase-labelled anti-rabbit IgG (dilution, 1/2000) (Dakocytomation). Detection was based on a chemiluminescence detection system (GE Healthcare, Orsay, France). The immunodetection of beta-actin (supposed to be constant regarding its concentration, regardless of the experimental condition) was used as an internal loading control.
The cleavage of PARP, a hallmark of apoptosis, was assessed by Western blot using an anti-PARP antibody that recognizes both the entire and cleaved PARP (Fig. 11).

With C(=C\c1nc2ccccc2[nH]1)/c1ccc(N(c2ccc(/C=C/c3nc4ccccc4[nH]3)cc2)c2ccc(/C=C/c3nc4ccccc4[nH]3)cc2)cc1 [TP3^NBzim, reference compound] the “localization of the neutral TPA derivative” value (living MCF-7 cells [1]; 2 µM, two hours, λexc 458nm, even in early observation) was “mainly localized in nuclei” and the “membrane blebbing / morphological changes under light illumination” value (living MCF-7 cells [1]; 2 µM, two hours, λexc 458nm, t = 0 to 30 min, data not shown) was “no membrane blebbing or morphological changes”.

In the case of C[n+]1ccccc1/C=C/c1ccc(N(c2ccccc2)c2ccc(/C=C/c3cccc[n+]3C)cc2)cc1 [Tp2Pyo], the “effect of initial illumination under epifluorescence microscopy” value (living MCF-7 cells [2]) is reported as “cytoplasm -> nucleus re-localization”.

In the case of Cn1c(/C=C/c2ccc(N(c3ccc(/C=C/c4n(C)c5ccccc5[n+]4C)cc3)c3ccc(/C=C/c4n(C)c5ccccc5[n+]4C)cc3)cc2)[n+](C)c2ccccc21 [TP3Bzim], the “subcellular localization at early time of observation” value (living HeLa cells; living HeLa cells) is reported as “mainly cytoplasmic”, the “emission spectrum, nuclear versus cytoplasmic localization” value (living MCF-7 cells [1]; data not shown) is reported as “remained the same” and the “localization of the TPA compound in fixed cells” value (HeLa cells) is reported as “nuclear localization”.

For Cn1c(/C=C/c2ccc(N(c3ccccc3)c3ccc(/C=C/c4n(C)c5ccccc5[n+]4C)cc3)cc2)[n+](C)c2ccccc21 [Tp2Bzim], the “effect of initial illumination under epifluorescence microscopy” value (living MCF-7 cells [2]) was “cytoplasm -> nucleus re-localization”.

With C[n+]1ccc(/C=C/c2ccc(N(c3ccccc3)c3ccc(/C=C/c4cc[n+](C)cc4)cc3)cc2)cc1 [TP2Py] the “cell morphology after 15 min illumination” value [3] was “a few cells were detached”, the “cell morphology after 90 min illumination” value [3] was “all cells displayed morphological alteration” and the “cell morphology without light illumination” value ([3]; 2 hour incubation) was “normal morphology”. The “subcellular localization at early time of observation” value (living HeLa cells; living HeLa cells) was “mainly cytoplasmic”, the “fluorescence signal 15 min after the beginning of irradiation” value (living HeLa cells; cells pre-incubated for 16 hours, continuous illumination, irradiance 1.8W/cm^2) was “photo-induced re-localization” and the “initial localization after 16-hour incubation” value (living HeLa cells; living HeLa cells, before illumination) was “mitochondrial localization”. The “maximum of emission in mitochondria” value (living MCF-7 cells [1]; living MCF7 cells, confocal) was 594 nm, the “maximum of emission in nuclei” value (living MCF-7 cells [1]; living MCF7 cells, confocal) was 624 nm and the “localization of the TPA compound in fixed cells” value (HeLa cells) was “nuclear localization”.
